According to paper PMC5943563:
Results are given in words; binding and its absence hold for the method and conditions named. Where a sequence is shown, tags or fusion partners need not be part of it.

Molecular target: T1, HISTONE …9 fused with the DNA-binding domain of GAL4 (Arabidopsis thaliana), Q8H0W2
T1 chain: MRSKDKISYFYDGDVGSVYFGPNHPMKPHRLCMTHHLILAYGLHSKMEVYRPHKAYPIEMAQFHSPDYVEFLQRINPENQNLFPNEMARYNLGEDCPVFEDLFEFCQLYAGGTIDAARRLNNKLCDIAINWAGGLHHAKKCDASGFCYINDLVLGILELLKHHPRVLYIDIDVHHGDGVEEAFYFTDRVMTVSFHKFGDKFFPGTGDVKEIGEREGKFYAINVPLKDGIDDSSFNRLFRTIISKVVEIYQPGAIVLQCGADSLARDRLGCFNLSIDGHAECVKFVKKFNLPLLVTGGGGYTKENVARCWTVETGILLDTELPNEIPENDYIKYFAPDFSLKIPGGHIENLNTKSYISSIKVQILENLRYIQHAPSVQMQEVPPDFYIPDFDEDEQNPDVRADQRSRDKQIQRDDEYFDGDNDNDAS
Test: two-hybrid; ProQuest Two-Hybrid System (pDEST22, pDEST32); growth on synthetic complete medium lacking leucine, tryptophan and histidine with 20 mM 3-amino-1,2-4-triazole
Conditions: remark: other sources report otherwise

B1: HIGH EXPRESSION OF OSMOTICALLY RESPONSIVE GENES15 fused with the activation domain of GAL4, Q9FN19 1-613 (protein)
chain: MSSLTSVELNFLVFRYLQESGFTHAAFTLGYEAGINKSNIDGNMVPPGALIKFVQKGLQYMEMEANLSNSEVDIDEDFSFFQPLDLISKDVKELQDMLREKKRKERDMEKERDRSKENDKGVEREHEGDRNRAKEKDRHEKQKEREREREKLEREKEREREKIEREKEREREKMEREIFEREKDRLKLEKEREIEREREREKIEREKSHEKQLGDADREMVIDQTDKEIAGDGSTGAEPMDIVMTPTSQTSHIPNSDVRILEGHTSEVCACAWSPSASLLASGSGDATARIWSIPEGSFKAVHTGRNINALILKHAKGKSNEKSKDVTTLDWNGEGTLLATGSCDGQARIWTLNGELISTLSKHKGPIFSLKWNKKGDYLLTGSVDRTAVVWDVKAEEWKQQFEFHSGPTLDVDWRNNVSFATSSTDSMIYLCKIGETRPAKTFTGHQGEVNCVKWDPTGSLLASCSDDSTAKIWNIKQSTFVHDLREHTKEIYTIRWSPTGPGTNNPNKQLTLASASFDSTVKLWDAELGKMLCSFNGHREPVYSLAFSPNGEYIASGSLDKSIHIWSIKEGKIVKTYTGNGGIFEVCWNKEGNKIAACFADNSVCVLDFRM
Q: Which binding does the source give for B1 here?
A: Its binding is “no binding”.
